Data as given in PubChem BioAssay AID1259405 (NCATS, 2018)
In all, the deposit lists about 50,000 reagents; below is a random part of them. About 4,000 of them (8%) count as active. 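Mouse siRNA library applied to hamster cells; one well for each siRNA.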 A number with no mark means an inactive call. The numbers tell different reagents against one gene apart.

Screen: 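Knock-downs that lift recombinant protein yield in hamster ovary cells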 (primary screen)
Cells: Chinese hamster CHO-K1 ovary cells with stable secreted eGFP expression
Reagents: single siRNA against mouse genes, 0.8 pmol siRNA per well (2 µl of 400 nM stock)
Timing: 3 days
Measured: 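Per-well intracellular GFP measured by laser scanning cytometry, plus viability from ATP luminescence, each relative to plate median of non-targeting control wells, in %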
Reading the numbers: GFP, % of control: higher = more GFP per well, higher productivity; viability (ATP), % of control: higher = more viable cells (more ATP)
Rule for the call: 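Called active when intracellular GFP, relative to negative control, is at or above 120%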

| gene symbol | reagent | GFP, % of control | viability (ATP), % of control |
| --- | --- | --- | --- |
| Ntpcr (nucleoside-triphosphatase, cancer-related) | 1 | 100 | 71.7 |
| Ntpcr (nucleoside-triphosphatase, cancer-related) | 2 | 62.8 | 59.8 |
| Ntpcr (nucleoside-triphosphatase, cancer-related) | 3 | 72.3 | 70.4 |
| Zfp617 (zinc finger protein 617) | 1 | 29.8 | 28.7 |
| Zfp617 (zinc finger protein 617) | 2 | 81.7 | 71.9 |
| Zfp617 (zinc finger protein 617) | 3 | 70.6 | 89.2 |
| Krit1 (KRIT1, ankyrin repeat containing) | 1 | 67.9 | 70.7 |
| Krit1 (KRIT1, ankyrin repeat containing) | 2 | 94.8 | 99 |
| Krit1 (KRIT1, ankyrin repeat containing) | 3 | 57.2 | 58.9 |
| Phb1 (prohibitin 1) | 1 | 59.8 | 60.3 |
| Phb1 (prohibitin 1) | 2 | 59.4 | 25.8 |
| Phb1 (prohibitin 1) | 3 | 102 | 158 |
| Cdk2 (cyclin dependent kinase 2) | 1 | 77 | 58.9 |
| Cdk2 (cyclin dependent kinase 2) | 2 | 73.3 | 62.4 |
| Cdk2 (cyclin dependent kinase 2) | 3 | 38 | 83.2 |
| Med20 (mediator complex subunit 20) | 1 | 50.9 | 32.9 |
| Med20 (mediator complex subunit 20) | 2 | 66.8 | 75.8 |
| Med20 (mediator complex subunit 20) | 3 | 69 | 75.4 |
| Or10x1 (olfactory receptor family 10 subfamily X member 1) | 1 | 15.8 | 20.6 |
| Or10x1 (olfactory receptor family 10 subfamily X member 1) | 2 | 121 (active) | 110 |
| Or10x1 (olfactory receptor family 10 subfamily X member 1) | 3 | 88.4 | 68.6 |
| Sts (steroid sulfatase) | 1 | 108 | 78.9 |
| Sts (steroid sulfatase) | 2 | 85.2 | 96.8 |
| Sts (steroid sulfatase) | 3 | 74.5 | 74.2 |

Quoted from the listing, 9 entries:
| gene symbol | reagent | GFP, % of control | viability (ATP), % of control |
| --- | --- | --- | --- |
| Med20 (mediator complex subunit 20) | 1 | 50.9 | 32.9 |
| Med20 (mediator complex subunit 20) | 2 | 66.8 | 75.8 |
| Med20 (mediator complex subunit 20) | 3 | 69 | 75.4 |
| Or10x1 (olfactory receptor family 10 subfamily X member 1) | 1 | 15.8 | 20.6 |
| Or10x1 (olfactory receptor family 10 subfamily X member 1) | 2 | 121 (active) | 110 |
| Or10x1 (olfactory receptor family 10 subfamily X member 1) | 3 | 88.4 | 68.6 |
| Sts (steroid sulfatase) | 1 | 108 | 78.9 |
| Sts (steroid sulfatase) | 2 | 85.2 | 96.8 |
| Sts (steroid sulfatase) | 3 | 74.5 | 74.2 |

Continued:
| gene symbol | reagent | GFP, % of control | viability (ATP), % of control |
| --- | --- | --- | --- |
| Ndufc2 (NADH:ubiquinone oxidoreductase subunit C2) | 1 | 94.4 | 90.2 |
| Ndufc2 (NADH:ubiquinone oxidoreductase subunit C2) | 2 | 114 | 73.3 |
| Ndufc2 (NADH:ubiquinone oxidoreductase subunit C2) | 3 | 96.3 | 69 |
| Mief1 (mitochondrial elongation factor 1) | 1 | 69.5 | 83.7 |
| Mief1 (mitochondrial elongation factor 1) | 2 | 87.6 | 133 |
| Mief1 (mitochondrial elongation factor 1) | 3 | 81.3 | 72 |
| Syap1 (synapse associated protein 1) | 1 | 112 | 83.2 |
| Syap1 (synapse associated protein 1) | 2 | 104 | 111 |
| Syap1 (synapse associated protein 1) | 3 | 98.1 | 111 |
| Lama1 (laminin, alpha 1) | 1 | 50.4 | 52.5 |
| Lama1 (laminin, alpha 1) | 2 | 85.6 | 73.6 |
| Lama1 (laminin, alpha 1) | 3 | 65.5 | 61.1 |
| Eci3 (enoyl-Coenzyme A delta isomerase 3) | 1 | 59.3 | 76 |
| Eci3 (enoyl-Coenzyme A delta isomerase 3) | 2 | 78.5 | 58.4 |
| Eci3 (enoyl-Coenzyme A delta isomerase 3) | 3 | 87.6 | 93.3 |
| Casp7 (caspase 7) | 1 | 26.6 | 39.8 |
| Casp7 (caspase 7) | 2 | 93.4 | 78.8 |
| Casp7 (caspase 7) | 3 | 66.7 | 81.2 |
| Sprr2d (small proline-rich protein 2D) | 1 | 114 | 41.7 |
| Sprr2d (small proline-rich protein 2D) | 2 | 190 (active) | 132 |
| Sprr2d (small proline-rich protein 2D) | 3 | 137 (active) | 112 |
| Srbd1 (S1 RNA binding domain 1) | 1 | 156 (active) | 70.2 |
| Srbd1 (S1 RNA binding domain 1) | 2 | 94.8 | 86.9 |
| Srbd1 (S1 RNA binding domain 1) | 3 | 42.5 | 46.2 |
| Foxj1 (forkhead box J1) | 1 | 87.8 | 99.4 |
| Foxj1 (forkhead box J1) | 2 | 83.5 | 60.8 |
| Spi1 (Spi-1 proto-oncogene) | 1 | 97.6 | 110 |
| Spi1 (Spi-1 proto-oncogene) | 2 | 36.2 | 27.8 |
| Spi1 (Spi-1 proto-oncogene) | 3 | 94.7 | 102 |
| Flot1 (flotillin 1) | 1 | 115 | 119 |
| Flot1 (flotillin 1) | 2 | 83.3 | 81.1 |
| Pramel20 (PRAME like 20) | 1 | 91.8 | 102 |
| Pramel20 (PRAME like 20) | 2 | 63.9 | 56.4 |
| Pramel20 (PRAME like 20) | 3 | 105 | 56.9 |
